From patent US20040171105A1
These are yes or no findings as the source states them, for the method shown. Binding seen in cells or lysates may run through a third protein. Some results given as binding are weak or reduced against the parent protein; the word gives no strength. Where a sequence is shown, tags or fusion partners need not be part of it.

Protein sequences, listed by entry. Tags and fused reporters are not part of them.
UniProt Q13490: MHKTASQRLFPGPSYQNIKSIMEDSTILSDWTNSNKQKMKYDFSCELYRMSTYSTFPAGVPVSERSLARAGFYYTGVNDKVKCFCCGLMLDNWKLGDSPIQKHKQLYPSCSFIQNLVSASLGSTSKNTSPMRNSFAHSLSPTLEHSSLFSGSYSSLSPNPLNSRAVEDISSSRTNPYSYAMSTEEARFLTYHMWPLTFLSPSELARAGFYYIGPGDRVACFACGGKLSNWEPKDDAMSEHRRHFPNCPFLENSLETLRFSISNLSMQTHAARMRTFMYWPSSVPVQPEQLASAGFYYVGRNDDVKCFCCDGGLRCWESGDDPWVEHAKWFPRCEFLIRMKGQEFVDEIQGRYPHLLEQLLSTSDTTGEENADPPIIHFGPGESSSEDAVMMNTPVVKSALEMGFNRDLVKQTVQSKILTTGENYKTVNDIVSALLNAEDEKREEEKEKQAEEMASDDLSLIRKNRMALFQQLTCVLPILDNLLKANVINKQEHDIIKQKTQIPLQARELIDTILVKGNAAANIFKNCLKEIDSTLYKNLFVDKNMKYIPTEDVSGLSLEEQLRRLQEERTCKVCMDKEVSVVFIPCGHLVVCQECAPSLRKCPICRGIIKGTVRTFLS

Legend:
[1] = target: GST fusion form of full-length human cIAP1 (human) (UniProt Q13490); assay: GST pulldown (50 nM GST-cIAP1, 100 nM Omi, Glutathione Sepharose beads, Western blot)
[2] = target: GST fusion form of full-length human cIAP1 (human) (UniProt Q13490); assay: GST pulldown (50 nM GST-cIAP1, 100 nM Omi mutant), compared with Omi WT
[3] = target: cIAP1 (form used in the pull-down with MAVPS Omi, not described) (UniProt Q13490); assay: pull-down assay of Omi expressed in transfected HeLa cells

B1: Omi WT (wild-type mature Omi/HtrA2, C-terminal hexa-His tagged, recombinant from E. coli) (enzyme)
chain: AVPSPPPASPRSQYNFIADVVEKTAPAVVYIEILDRHPFLGREVPISNGSGFVVAADGLIVTNAHVVADRRRVRVRLLSGDTYEAVVTAVDPVADIATLRIQTKEPLPTLPLGRSADVRQGEFVVAMGSPFALQNTITSGIVSSAQRPARDLGLPQTNVEYIQTDAAIDFGNSGGPLVNLDGEVIGVNTMKVTAGISFAIPSDRLREFLHRGEKKNSSSGISGSQRRYIGVMMLTLSPSILAELQLREPSFPDVQHGVLIHKVILGSPAHRAGLRPGDVILAIGEQMVQNAEDVYEAVRTQSQLAVQIRRGRETLTLYVTPEVTEHHHHHH
How did the binding [1] turn out when B1 was run?
The binding was “binds”.

B2: OmiΔPDZ (Omi with the PDZ domain deleted, C-terminal hexa-His tagged) (enzyme)
chain: AVPSPPPASPRSQYNFIADVVEKTAPAVVYIEILDRHPFLGREVPISNGSGFVVAADGLIVTNAHVVADRRRVRVRLLSGDTYEAVVTAVDPVADIATLRIQTKEPLPTLPLGRSADVRQGEFVVAMGSPFALQNTITSGIVSSAQRPARDLGLPQTNVEYIQTDAAIDFGNSGGPLVNLDGEVIGVNTMKVTAGISFAIPSDRLREFLHRGEKKNSSSGISGSQHHHHHH
How did the binding [2] turn out when B2 was run?
Its binding is “binds”.

B3: MAVPS Omi-Myc (cytosolic form of Omi, C-terminal c-Myc tagged, expressed in HeLa cells) (enzyme)
chain: AVPSPPPASPRSQYNFIADVVEKTAPAVVYIEILDRHPFLGREVPISNGSGFVVAADGLIVTNAHVVADRRRVRVRLLSGDTYEAVVTAVDPVADIATLRIQTKEPLPTLPLGRSADVRQGEFVVAMGSPFALQNTITSGIVSSAQRPARDLGLPQTNVEYIQTDAAIDFGNSGGPLVNLDGEVIGVNTMKVTAGISFAIPSDRLREFLHRGEKKNSSSGISGSQRRYIGVMMLTLSPSILAELQLREPSFPDVQHGVLIHKVILGSPAHRAGLRPGDVILAIGEQMVQNAEDVYEAVRTQSQLAVQIRRGRETLTLYVTPEVTEEQKLISEEDL
Which binding [3] does the source give for B3 here?
The binding was “binds”.
